Record: PubChem BioAssay AID1259314 (Drosophila RNAi Screening Center, 2017)
This is one part, drawn at random, of about 3,100 reagents. 289 of all reagents (9.3%) were called active. 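Active includes both higher and lower ATP than plate average; check the z-score sign for direction.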 The numbers tell different reagents against one gene apart. Names joined by + are all predicted targets of the reagent. The record does not give: the amount of reagent.

- Purpose: 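Modifiers of manganese chloride toxicity in fly cells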 (primary screen)
- Cells: Drosophila S2R+ cells
- Reagent: long dsRNA against Drosophila genes
- Time to read-out: 5 days (4 days knock-down, then 1 day metal exposure)
- Challenge: manganese chloride added to 15 mM for 24 hours
- Detection: 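Luciferase ATP signal used as a proxy for viable cell number, reported as one averaged z-score per dsRNA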
- Reading the numbers: mean ATP z-score: higher = more ATP than the plate average, more viable cells under manganese
- Call rule: 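Called active when the mean ATP z-score is above 1.5 or below -1.5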
- Calls: active = strong ATP change, up or down; inactive = no strong ATP change

dy (dusky) #1 → mean ATP z-score: 0.267; Call: inactive
dy (dusky) #2 → mean ATP z-score: -0.983; Call: inactive
Or49a (Odorant receptor 49a) #1 → mean ATP z-score: -0.457; Call: inactive
Or49a (Odorant receptor 49a) #2 → mean ATP z-score: -1.24; Call: inactive
ifc (infertile crescent) #1 → mean ATP z-score: 0.56; Call: inactive
ifc (infertile crescent) #2 → mean ATP z-score: 0.379; Call: inactive
CG13893 #1 → mean ATP z-score: 0.852; Call: inactive
CG13893 #2 → mean ATP z-score: 1; Call: inactive
PGRP-SB1 (Peptidoglycan recognition protein SB1) → mean ATP z-score: -0.741; Call: inactive
tomboy20 → mean ATP z-score: -0.636; Call: inactive
AstA-R1 (Allatostatin A receptor 1) #1 → mean ATP z-score: -0.671; Call: inactive
AstA-R1 (Allatostatin A receptor 1) #2 → mean ATP z-score: 0.084; Call: inactive
alpha-Catr (alpha-catenin related) → mean ATP z-score: 0.755; Call: inactive
app (approximated) #1 → mean ATP z-score: -0.672; Call: inactive
app (approximated) #2 → mean ATP z-score: 1.12; Call: inactive
CG8008 #1 → mean ATP z-score: -1.45; Call: inactive
CG8008 #2 → mean ATP z-score: 0.283; Call: inactive
Tspo + rempA → mean ATP z-score: 0.553; Call: inactive
CG14420 #1 → mean ATP z-score: 0.0579; Call: inactive
CG14420 #2 → mean ATP z-score: -0.486; Call: inactive
CG8925 #1 → mean ATP z-score: -0.00431; Call: inactive
CG8925 #2 → mean ATP z-score: -0.428; Call: inactive

Next part (5 carried over from the part before).
Tspo + rempA → mean ATP z-score: 0.553; Call: inactive
CG14420 #1 → mean ATP z-score: 0.0579; Call: inactive
CG14420 #2 → mean ATP z-score: -0.486; Call: inactive
CG8925 #1 → mean ATP z-score: -0.00431; Call: inactive
CG8925 #2 → mean ATP z-score: -0.428; Call: inactive
SdhCL (Succinate dehydrogenase, subunit C-like) #1 → mean ATP z-score: -0.246; Call: inactive
SdhCL (Succinate dehydrogenase, subunit C-like) #2 → mean ATP z-score: 0.576; Call: inactive
Gr63a (Gustatory receptor 63a) → mean ATP z-score: -1.18; Call: inactive
Balat + asRNA:CR43469 #1 → mean ATP z-score: -0.156; Call: inactive
Balat + asRNA:CR43469 #2 → mean ATP z-score: -0.359; Call: inactive
mbo (members only) #1 → mean ATP z-score: 0.211; Call: inactive
mbo (members only) #2 → mean ATP z-score: -0.999; Call: inactive
Fas3 (Fasciclin 3) #1 → mean ATP z-score: -0.581; Call: inactive
Fas3 (Fasciclin 3) #2 → mean ATP z-score: 1.69; Call: active
Fas3 (Fasciclin 3) #3 → mean ATP z-score: -1.24; Call: inactive
CNT2 (Concentrative nucleoside transporter 2) → mean ATP z-score: 2.66; Call: active
ppk8 (pickpocket 8) #1 → mean ATP z-score: -1.89; Call: active
ppk8 (pickpocket 8) #2 → mean ATP z-score: -1.28; Call: inactive
Eato (Engulfment ABC Transporter in the ovary) #1 → mean ATP z-score: -0.489; Call: inactive
Eato (Engulfment ABC Transporter in the ovary) #2 → mean ATP z-score: 1.05; Call: inactive
CG33124 → mean ATP z-score: -0.385; Call: inactive
SdhC (Succinate dehydrogenase, subunit C) #1 → mean ATP z-score: -1.06; Call: inactive
SdhC (Succinate dehydrogenase, subunit C) #2 → mean ATP z-score: -0.932; Call: inactive
CG6696 #1 → mean ATP z-score: -0.735; Call: inactive
CG6696 #2 → mean ATP z-score: 0.0499; Call: inactive
VhaM9.7-b (Vacuolar H[+] ATPase M9.7 subunit b) → mean ATP z-score: -0.398; Call: inactive
Ir47a (Ionotropic receptor 47a) → mean ATP z-score: -1.03; Call: inactive
CG32579 #1 → mean ATP z-score: -0.283; Call: inactive
CG32579 #2 → mean ATP z-score: 0.947; Call: inactive
TkR99D (Tachykinin-like receptor at 99D) #1 → mean ATP z-score: 0.268; Call: inactive
TkR99D (Tachykinin-like receptor at 99D) #2 → mean ATP z-score: 0.419; Call: inactive
VhaAC45RP (VhaAC45-related protein) #1 → mean ATP z-score: -0.527; Call: inactive
VhaAC45RP (VhaAC45-related protein) #2 → mean ATP z-score: -0.323; Call: inactive
Or94a (Odorant receptor 94a) → mean ATP z-score: -0.206; Call: inactive
CG32305 #1 → mean ATP z-score: 0.474; Call: inactive
CG32305 #2 → mean ATP z-score: -0.0506; Call: inactive
smog #1 → mean ATP z-score: -0.325; Call: inactive
smog #2 → mean ATP z-score: -0.467; Call: inactive
smog #3 → mean ATP z-score: 1.54; Call: active
CG30047 → mean ATP z-score: -0.405; Call: inactive
Cirl (Calcium-independent receptor for alpha-latrotoxin) #1 → mean ATP z-score: 0.0155; Call: inactive
Cirl (Calcium-independent receptor for alpha-latrotoxin) #2 → mean ATP z-score: 0.363; Call: inactive
Nup107 (Nucleoporin 107kD) → mean ATP z-score: -1.09; Call: inactive
